From publication PMC6440744
Residue numbers refer to the chain shown, from its start. These are yes or no findings as the source states them, for the method shown. In cells and extracts the contact can be indirect.

Columns and labels:
Experiment in all cases: pull-down; biotinylated His.TEV.Avi PTPRK, PTPRM or chimeric domains on streptavidin-coated magnetic beads; lysate of confluent, pervanadate-treated MCF10A cells, 1.5 hr at 4°C; immunoblot of inputs, supernatants and pull downs; only the target purified
[1] = molecular target: T1, PTPRK D2 pseudophosphatase domain (human) (UniProt Q15262)
T1 sequence (chain, biotin on the AviTag): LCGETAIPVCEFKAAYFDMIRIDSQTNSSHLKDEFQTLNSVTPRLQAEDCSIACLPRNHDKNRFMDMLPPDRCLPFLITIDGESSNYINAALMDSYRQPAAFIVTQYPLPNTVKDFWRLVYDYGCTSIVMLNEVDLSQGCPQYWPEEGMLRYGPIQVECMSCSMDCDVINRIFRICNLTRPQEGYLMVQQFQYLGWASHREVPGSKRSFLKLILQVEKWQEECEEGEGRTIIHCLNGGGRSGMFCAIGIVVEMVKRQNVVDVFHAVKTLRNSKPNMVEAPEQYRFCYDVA

[2] = molecular target: T2, PTPRK ICD-C1089S (substrate-trapping mutant) (human) (UniProt Q15262)
T2 sequence (chain, biotin on the AviTag): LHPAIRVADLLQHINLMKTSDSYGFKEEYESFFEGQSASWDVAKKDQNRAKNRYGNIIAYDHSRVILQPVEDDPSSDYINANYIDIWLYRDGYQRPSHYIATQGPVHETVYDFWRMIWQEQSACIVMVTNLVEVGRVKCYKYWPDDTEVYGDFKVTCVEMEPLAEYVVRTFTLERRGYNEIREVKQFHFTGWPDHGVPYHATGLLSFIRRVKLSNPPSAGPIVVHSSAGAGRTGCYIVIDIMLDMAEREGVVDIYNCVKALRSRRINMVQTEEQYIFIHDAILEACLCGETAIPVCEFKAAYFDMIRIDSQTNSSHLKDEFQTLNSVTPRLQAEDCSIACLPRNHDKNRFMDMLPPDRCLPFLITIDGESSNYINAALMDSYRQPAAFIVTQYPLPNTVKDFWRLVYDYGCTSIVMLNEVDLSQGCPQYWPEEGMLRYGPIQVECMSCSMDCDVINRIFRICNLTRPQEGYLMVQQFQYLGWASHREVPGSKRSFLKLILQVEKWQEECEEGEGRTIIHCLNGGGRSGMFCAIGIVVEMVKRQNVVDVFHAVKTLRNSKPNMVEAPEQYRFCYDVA

[3] = molecular target: T3, PTPRK ICD-D1057A (substrate-trapping mutant) (human) (UniProt Q15262)
T3 sequence (chain, biotin on the AviTag): T2 sequence (chain, biotin on the AviTag) with D194A, S226C

- binding [1]: no binding
- binding [2]: no binding
- binding [3]: no binding
Substance: E-Cadherin (human (endogenous in MCF10A))
